# The supplement of paper PMC8426693
# The list shows a part of the results.
# Tests used:
# Assay in all cases: NMR binding call after quantification (hit when 2 of 3 NMR criteria are met) (binary (1 = binding, 0 = not binding)); higher = binding
# Conditions in all cases: RNA concentration 10 µM; fragment concentration 200 µM; 293 K
# SARS-CoV-2 5_SL7 RNA = test system: SARS-CoV-2 5_SL7 RNA
# SARS-CoV-2 5_SL8 RNA = test system: SARS-CoV-2 5_SL8 RNA
# [1] = test system: SARS-CoV-2 attenuator hairpin (att HP) RNA
# [2] = test system: SARS-CoV-2 frameshift pseudoknot (PK) RNA
smiles,measurement,setting,value
CC(C)NC(=O)c1ccc2ccccc2n1,NMR binding call,SARS-CoV-2 5_SL7 RNA,0
same,NMR binding call,SARS-CoV-2 5_SL8 RNA,0
same,NMR binding call,[1],0
same,NMR binding call,[2],0
Cc1nc(CC(=O)N2CCOCC2)cs1,NMR binding call,SARS-CoV-2 5_SL7 RNA,0
same,NMR binding call,SARS-CoV-2 5_SL8 RNA,0
same,NMR binding call,[1],0
same,NMR binding call,[2],0
CC(=O)Nc1ccccc1O,NMR binding call,SARS-CoV-2 5_SL7 RNA,0
same,NMR binding call,SARS-CoV-2 5_SL8 RNA,0
same,NMR binding call,[1],0
same,NMR binding call,[2],0
CC(=O)N(C)c1cccnc1,NMR binding call,SARS-CoV-2 5_SL7 RNA,0
same,NMR binding call,SARS-CoV-2 5_SL8 RNA,0
same,NMR binding call,[1],0
same,NMR binding call,[2],0
CCNC(=O)Nc1cc(C)on1,NMR binding call,SARS-CoV-2 5_SL7 RNA,0
same,NMR binding call,SARS-CoV-2 5_SL8 RNA,0
same,NMR binding call,[1],0
same,NMR binding call,[2],0
CC(=O)NCc1ncc[nH]1,NMR binding call,SARS-CoV-2 5_SL7 RNA,0
same,NMR binding call,SARS-CoV-2 5_SL8 RNA,0
same,NMR binding call,[1],0
same,NMR binding call,[2],0
CC(Oc1ccccc1F)C(=O)O (configuration not stated),NMR binding call,SARS-CoV-2 5_SL7 RNA,0
same,NMR binding call,SARS-CoV-2 5_SL8 RNA,0
same,NMR binding call,[1],0
same,NMR binding call,[2],0
c1csc(CNCc2ccncc2)c1,NMR binding call,SARS-CoV-2 5_SL7 RNA,0
same,NMR binding call,SARS-CoV-2 5_SL8 RNA,0
same,NMR binding call,[1],0
same,NMR binding call,[2],0
Cc1[nH][nH]c(=O)c1CCO,NMR binding call,SARS-CoV-2 5_SL7 RNA,0
same,NMR binding call,SARS-CoV-2 5_SL8 RNA,0
same,NMR binding call,[1],0
same,NMR binding call,[2],0
OCC1CN(Cc2ccccc2)CCO1 (configuration not stated),NMR binding call,SARS-CoV-2 5_SL7 RNA,0
same,NMR binding call,SARS-CoV-2 5_SL8 RNA,0
same,NMR binding call,[1],0
same,NMR binding call,[2],0
Cc1noc(NC(=O)CC2CCCC2)n1,NMR binding call,SARS-CoV-2 5_SL7 RNA,0
same,NMR binding call,SARS-CoV-2 5_SL8 RNA,0
same,NMR binding call,[1],0
same,NMR binding call,[2],0
Cc1ccc(Nc2ncnc3[nH]ncc23)cc1,NMR binding call,SARS-CoV-2 5_SL7 RNA,0
same,NMR binding call,SARS-CoV-2 5_SL8 RNA,0
same,NMR binding call,[1],0
same,NMR binding call,[2],0
CN(Cc1cccc(F)c1)S(N)(=O)=O,NMR binding call,SARS-CoV-2 5_SL7 RNA,0
same,NMR binding call,SARS-CoV-2 5_SL8 RNA,0
same,NMR binding call,[1],0
same,NMR binding call,[2],0
O=C(Nc1ccccn1)c1cnccn1,NMR binding call,SARS-CoV-2 5_SL7 RNA,0
same,NMR binding call,SARS-CoV-2 5_SL8 RNA,0
same,NMR binding call,[1],0
same,NMR binding call,[2],0
Cc1cnc(N2CCNCC2)s1.Cl.Cl,NMR binding call,SARS-CoV-2 5_SL7 RNA,0
same,NMR binding call,SARS-CoV-2 5_SL8 RNA,0
same,NMR binding call,[1],0
same,NMR binding call,[2],0
CN(C)C(=O)Nc1ccc(S(N)(=O)=O)cc1,NMR binding call,SARS-CoV-2 5_SL7 RNA,0
same,NMR binding call,SARS-CoV-2 5_SL8 RNA,0
same,NMR binding call,[1],0
same,NMR binding call,[2],0
CCOc1ccccc1N1CCNCC1.Cl,NMR binding call,SARS-CoV-2 5_SL7 RNA,0
same,NMR binding call,SARS-CoV-2 5_SL8 RNA,0
same,NMR binding call,[1],0
same,NMR binding call,[2],0
Cn1c(CNC2CCCCC2)nc2ccccc21,NMR binding call,SARS-CoV-2 5_SL7 RNA,0
same,NMR binding call,SARS-CoV-2 5_SL8 RNA,0
same,NMR binding call,[1],0
same,NMR binding call,[2],0
CC1CN(C(=O)c2cnccn2)CCO1 (configuration not stated),NMR binding call,SARS-CoV-2 5_SL7 RNA,0
same,NMR binding call,SARS-CoV-2 5_SL8 RNA,0
same,NMR binding call,[1],0
same,NMR binding call,[2],0
CN1CCN(S(=O)(=O)N(C)C)CC1,NMR binding call,SARS-CoV-2 5_SL7 RNA,0
same,NMR binding call,SARS-CoV-2 5_SL8 RNA,0
same,NMR binding call,[1],0
same,NMR binding call,[2],0
N#CCC(=O)N1CCC(Cc2ccccc2)CC1,NMR binding call,SARS-CoV-2 5_SL7 RNA,0
same,NMR binding call,SARS-CoV-2 5_SL8 RNA,0
same,NMR binding call,[1],0
same,NMR binding call,[2],0
c1ccc(CCNc2nc3ccccc3[nH]2)cc1,NMR binding call,SARS-CoV-2 5_SL7 RNA,0
same,NMR binding call,SARS-CoV-2 5_SL8 RNA,0
same,NMR binding call,[1],0
same,NMR binding call,[2],0
COCCNC1CCN(C(C)=O)CC1,NMR binding call,SARS-CoV-2 5_SL7 RNA,0
same,NMR binding call,SARS-CoV-2 5_SL8 RNA,0
same,NMR binding call,[1],0
same,NMR binding call,[2],0
Nc1nccc(-c2ccc(Cl)cc2)n1,NMR binding call,SARS-CoV-2 5_SL7 RNA,0
same,NMR binding call,SARS-CoV-2 5_SL8 RNA,0
same,NMR binding call,[1],0
same,NMR binding call,[2],1
COc1ccc(CNC(=O)c2cnccn2)cc1,NMR binding call,SARS-CoV-2 5_SL7 RNA,0
same,NMR binding call,SARS-CoV-2 5_SL8 RNA,0
same,NMR binding call,[1],0
same,NMR binding call,[2],0
COC(=O)Nc1nnc(CC2CCCC2)s1,NMR binding call,SARS-CoV-2 5_SL7 RNA,0
same,NMR binding call,SARS-CoV-2 5_SL8 RNA,0
same,NMR binding call,[1],0
same,NMR binding call,[2],0
CC(CS(N)(=O)=O)c1ccccc1 (configuration not stated),NMR binding call,SARS-CoV-2 5_SL7 RNA,0
same,NMR binding call,SARS-CoV-2 5_SL8 RNA,0
same,NMR binding call,[1],0
same,NMR binding call,[2],0
Fc1cccnc1NCC1CCOCC1,NMR binding call,SARS-CoV-2 5_SL7 RNA,0
same,NMR binding call,SARS-CoV-2 5_SL8 RNA,0
same,NMR binding call,[1],0
same,NMR binding call,[2],0
CC1=NN(c2ccccc2)C(=O)C1,NMR binding call,SARS-CoV-2 5_SL7 RNA,0
same,NMR binding call,SARS-CoV-2 5_SL8 RNA,0
same,NMR binding call,[1],0
same,NMR binding call,[2],0
CC(C)c1ccc(C(=O)Nc2nncs2)cc1,NMR binding call,SARS-CoV-2 5_SL7 RNA,0
same,NMR binding call,SARS-CoV-2 5_SL8 RNA,0
same,NMR binding call,[1],0
same,NMR binding call,[2],0
CCCn1nccc1-c1ccncc1,NMR binding call,SARS-CoV-2 5_SL7 RNA,0
same,NMR binding call,SARS-CoV-2 5_SL8 RNA,0
same,NMR binding call,[1],0
same,NMR binding call,[2],0
CNS(=O)(=O)CC1CCCCC1,NMR binding call,SARS-CoV-2 5_SL7 RNA,0
same,NMR binding call,SARS-CoV-2 5_SL8 RNA,0
same,NMR binding call,[1],0
same,NMR binding call,[2],0
NCc1ccccc1OC(F)(F)F,NMR binding call,SARS-CoV-2 5_SL7 RNA,0
same,NMR binding call,SARS-CoV-2 5_SL8 RNA,0
same,NMR binding call,[1],0
same,NMR binding call,[2],0
O=C(O)c1ccc(OCc2ccccc2)cc1,NMR binding call,SARS-CoV-2 5_SL7 RNA,0
same,NMR binding call,SARS-CoV-2 5_SL8 RNA,0
same,NMR binding call,[1],0
same,NMR binding call,[2],0
CS(=O)(=O)Nc1ccc(CN)cc1.Cl,NMR binding call,SARS-CoV-2 5_SL7 RNA,0
same,NMR binding call,SARS-CoV-2 5_SL8 RNA,0
same,NMR binding call,[1],0
same,NMR binding call,[2],0
CCCn1c(NC(=O)CC)nc2ccccc21,NMR binding call,SARS-CoV-2 5_SL7 RNA,0
same,NMR binding call,SARS-CoV-2 5_SL8 RNA,0
same,NMR binding call,[1],0
same,NMR binding call,[2],0
Cc1noc(C)c1CC(C)C(=O)N(C)C (configuration not stated),NMR binding call,SARS-CoV-2 5_SL7 RNA,0
same,NMR binding call,SARS-CoV-2 5_SL8 RNA,0
same,NMR binding call,[1],0
same,NMR binding call,[2],0
COc1ccc(C(=O)Nc2ccccc2F)cc1,NMR binding call,SARS-CoV-2 5_SL7 RNA,0
same,NMR binding call,SARS-CoV-2 5_SL8 RNA,0
same,NMR binding call,[1],0
same,NMR binding call,[2],0
CC(=O)NCC1CNCCO1 (configuration not stated),NMR binding call,SARS-CoV-2 5_SL7 RNA,0
same,NMR binding call,SARS-CoV-2 5_SL8 RNA,0
same,NMR binding call,[1],0
same,NMR binding call,[2],0
Cc1ccc(CN(C)Cc2ccccc2)o1,NMR binding call,SARS-CoV-2 5_SL7 RNA,0
same,NMR binding call,SARS-CoV-2 5_SL8 RNA,0
same,NMR binding call,[1],0
same,NMR binding call,[2],0
CC(=O)Nc1ccc2[nH]c(=O)[nH]c2c1,NMR binding call,SARS-CoV-2 5_SL7 RNA,0
same,NMR binding call,SARS-CoV-2 5_SL8 RNA,0
same,NMR binding call,[1],0
same,NMR binding call,[2],0
CN1CCN(C(=O)Nc2ccccc2)CC1,NMR binding call,SARS-CoV-2 5_SL7 RNA,0
same,NMR binding call,SARS-CoV-2 5_SL8 RNA,0
same,NMR binding call,[1],0
same,NMR binding call,[2],0
CS(=O)(=O)NCC1CCNCC1,NMR binding call,SARS-CoV-2 5_SL7 RNA,0
same,NMR binding call,SARS-CoV-2 5_SL8 RNA,0
same,NMR binding call,[1],0
same,NMR binding call,[2],0

# Taken from the entries so far (4 entries):
smiles,measurement,setting,value
Cc1noc(C)c1CC(C)C(=O)N(C)C (configuration not stated),NMR binding call,SARS-CoV-2 5_SL8 RNA,0
same,NMR binding call,[1],0
same,NMR binding call,[2],0
COc1ccc(C(=O)Nc2ccccc2F)cc1,NMR binding call,SARS-CoV-2 5_SL7 RNA,0

# A second format for some results above:
smiles	measurement	setting	value
c1csc(CNCc2ccncc2)c1	NMR binding call	SARS-CoV-2 5_SL7 RNA	0
Cn1c(CNC2CCCCC2)nc2ccccc21	NMR binding call	SARS-CoV-2 5_SL8 RNA	0
